Reference: PubChem BioAssay AID493014 (National Center for Advancing Translational Sciences (NCATS), 2011)
Some of the results follow. These are further read-outs of the screen, such as a control signal, another cell line or another target. No call is given for them. The list favours compounds with an active or inconclusive main result. Words in brackets tell the shape of the fitted curve; partial curves, single points and poor fits give uncertain potencies.

Experiment: qHTS Assay to Find Inhibitors of Chronic Active B-Cell Receptor Signaling
Conditions: ABC-DLBCL IkBa-CBG/CBR reporter, luminescence ratio (green luciferase fused to IkBa over red control in TMD8 lymphoma cells), 4 h
Summary of the method: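 TMD8 ABC-DLBCL cells carrying doxycycline-inducible green luciferase fused to IkappaBalpha plus unfused red luciferase were exposed to compounds (up to 46 uM) for 4 hrs at 37C. Activity came from the overlap-corrected green/red luminescence ratio.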

[1] = measured here: CBR red luminescence, cell number
[2] = measured here: IkBa-CBG green luminescence

Compound	AC50 [1]	AC50 [2]
O=C(CSc1nc2ccccc2o1)NCc1ccc2c(c1)OCO2	4.11 µM [falling, full curve, poor fit]	–
Fc1ccc(-c2csc(Nc3ccccn3)n2)cc1	3.16 µM [falling, partial curve]	–
O=c1nc(SCc2c(F)cccc2Cl)nc(-c2ccc(Cl)cc2)[nH]1	1.41 µM [rising, partial curve, poor fit]	–
CCCSC(=S)c1c(C)[nH]n(-c2ccccc2)c1=O	11.2 µM [falling, partial curve]	–
Cc1cc(C)n2[nH]c(=O)c(N=Nc3ccc(S(N)(=O)=O)cc3)c2n1	0.126 µM [falling, full curve, poor fit]	–
Cc1c(CC(=O)O)c(=O)oc2c(C)c3occ(-c4ccc(F)cc4)c3cc12	35.5 µM [rising, single point]	–
CCOc1ccc(NC(=O)/C(=C\c2ccc(OC(C)=O)c(OC)c2)NC(C)=O)cc1	25.9 µM [falling, single point]	–
O=C(Nc1cccnc1)C1CCCN(S(=O)(=O)c2cccc3nsnc23)C1 (stereo not drawn)	23.1 µM [falling, single point]	20.6 µM [rising, partial curve, poor fit]
COc1ccc(-n2ncc3c(NCCCn4ccnc4)ncnc32)cc1	3.55 µM [rising, single point]	–
O=C(/C(=C/c1ccc(Cl)cc1)c1nc2ccccc2[nH]1)c1cccs1	18.4 µM [falling, partial curve, poor fit]	–
CN(C(=O)COC(=O)c1cccnc1Nc1cccc(C(F)(F)F)c1)C1CCS(=O)(=O)C1 (stereo not drawn)	2.59 µM [falling, partial curve]	–
O=C(OCc1cnc(Cl)s1)c1c(F)cccc1F	14.1 µM [rising, partial curve, poor fit]	–
COc1cc(/C=N/O)ccc1OCc1ccc([N+](=O)[O-])cc1	1.84 µM [rising, partial curve, poor fit]	18.4 µM [falling, partial curve, poor fit]
C/C(=N\NC(=O)c1cc(Cl)ccc1O)c1ccc(Br)s1	0.517 µM [falling, full curve]	–
O=[N+]([O-])c1ccc(NC(=S)N2CCc3ccccc3C2)cc1	3.66 µM [rising, partial curve, poor fit]	–
C=CCc1cccc2cc(C(=O)NC(C)(C)C)c(=O)oc12	29.1 µM [falling, single point]	–
COc1cc(OC)c2c(=O)cc(-c3cccnc3)oc2c1	22.4 µM [rising, partial curve, poor fit]	20 µM [falling, partial curve]
CCOC(=O)N1CCN(c2nc(SC)nc3sc4c(c23)CC(C)(C)OC4)CC1	8.2 µM [rising, partial curve, poor fit]	–
Cc1ccc(-c2nnc(Nc3ccccc3)c3ccccc23)cc1S(=O)(=O)NCC1CCCO1 (stereo not drawn)	31.6 µM [falling, single point]	–
COc1ccc(NCC(=O)Nc2ccc(Cl)cc2C)c(OC)c1	18.4 µM [falling, single point]	–
CCOc1ccc2nc(N3CCOCC3)nc(C)c2c1	4.11 µM [rising, full curve, poor fit]	–
C=CCNC(=O)COc1ccc(Oc2ccccc2)cc1	35.5 µM [falling, single point]	–

Three structures out of the list, sorted by molecular weight, ascending:
Compound	AC50 [1]	AC50 [2]
Fc1ccc(-c2csc(Nc3ccccn3)n2)cc1	3.16 µM [falling, partial curve]	–
O=C(CSc1nc2ccccc2o1)NCc1ccc2c(c1)OCO2	4.11 µM [falling, full curve, poor fit]	–
CCOC(=O)N1CCN(c2nc(SC)nc3sc4c(c23)CC(C)(C)OC4)CC1	8.2 µM [rising, partial curve, poor fit]	–

Further results:

Compound	AC50 [1]	AC50 [2]
O=C(O)C(=O)/C(=C\c1cccc(Cl)c1)c1ccc2ccccc2n1	14.1 µM [falling, single point]	–
NC(=O)C1(N2CCCCC2)CCN(Cc2ccccc2Cl)CC1	29.1 µM [falling, single point]	–
O=C(NC(=S)Nc1ncc(Br)cc1Br)c1ccccc1	10 µM [falling, partial curve, poor fit]	–
O=C(COC(=O)CNC(=O)c1cccc([N+](=O)[O-])c1)Nc1ccccc1OC(F)F	7.31 µM [rising, partial curve]	–
Cc1cccc(NC(=O)c2ccc3nccnc3c2)n1	35.5 µM [falling, single point]	–
O=C(CSc1nnc(COc2ccc(Cl)cc2)o1)N1c2ccccc2CCc2ccccc21	7.08 µM [falling, partial curve, poor fit]	–
COc1ccc(/C(N)=N/OC(=O)Cc2cccs2)cc1	29.1 µM [falling, single point]	–
Cc1nc(N)c(Br)c(C)c1Br	15.8 µM [falling, single point]	–
CCN(CC(=O)Nc1ccc(OC)cc1)CC(=O)N1CC(=O)Nc2ccccc21	14.6 µM [rising, partial curve]	–
CCN(C(=O)c1cnc(OC)cc1C(F)(F)F)c1ccc(Cl)cc1Cl	12.6 µM [rising, partial curve, poor fit]	–
Cc1ccc(S(=O)(=O)N2CCCC2CNC(=O)C(=O)NCc2cccs2)cc1 (stereo not drawn)	29.1 µM [rising, single point]	–
CCc1ccc(Nc2oc(C)cc(=O)c2C(C)=O)cc1	35.5 µM [rising, partial curve, poor fit]	–
CCN(CC(=O)Nc1cc(Cl)ccc1C)C(=O)C1CCCCC1	0.708 µM [falling, full curve]	–
O=C(Nc1ccc2c(c1)CCC2)c1cc(F)cc(F)c1	2.91 µM [rising, partial curve, poor fit]	–
CCn1c(COc2ccccc2C)nnc1SCC(=O)CC(=O)Nc1ccccc1OC	18.4 µM [falling, single point]	–
O=C(NNC(=O)c1ccccc1C(=O)O)c1cc2ccccc2o1	22.4 µM [falling, single point]	–
CCC(C)Cn1c(C)nc2ccccc21 (stereo not drawn)	6.31 µM [falling, single point]	–
O=C(Cn1nnc2c(cnn2-c2ccc(F)cc2)c1=O)c1ccccc1F	0.291 µM [rising, full curve, poor fit]	–
O=C(Nc1ccc2c(c1)OCO2)C1CCCN1C(=O)OCc1ccccc1 (stereo not drawn)	10 µM [rising, partial curve, poor fit]	–
CCN(CC)C(=O)CSc1nnc(-c2cccc(OC)c2)o1	0.164 µM [rising, full curve, poor fit]	–
CCOC(=O)c1cnn(-c2ccccc2)c1-n1cccc1C(=O)C(=O)Nc1ccc(F)cc1	2.82 µM [falling, partial curve, poor fit]	–
CCOC(=O)c1ccc(NC(=O)C2=C(C)Nc3nc(CCCO)nn3C2c2ccc(OC)cc2)cc1 (stereo not drawn)	1.58 µM [rising, partial curve, poor fit]	–

Compound	AC50 [1]	AC50 [2]
CC12CC3CC(C)(C1)CC(C(=O)NCc1ccco1)(C3)C2	0.251 µM [falling, partial curve, poor fit]	–
Cc1sc(NC(=O)CN(Cc2ccc(F)cc2)C(=O)C(C)C)c(C(N)=O)c1C	0.0891 µM [falling, full curve, poor fit]	–
O=C(NNC(=O)c1ccccc1[N+](=O)[O-])Nc1ccc(Cl)cc1	35.5 µM [falling, single point]	–
O=C(CSc1ncccn1)NCCC1=CCCCC1	4.61 µM [rising, full curve]	–
Cn1ccsc1=NC(=O)c1cccc(OC(F)F)c1	0.708 µM [rising, full curve, poor fit]	–
COc1ccccc1NC(=S)NC(=O)c1ccc(Cn2cc(Br)cn2)cc1	0.366 µM [falling, partial curve, poor fit]	–
COc1ccc2oc(=O)c(C(=O)n3ccc(C)n3)cc2c1	6.51 µM [falling, single point]	–
Cn1ccs/c1=N\C(=O)Nc1cccc(Cl)c1	35.5 µM [falling, single point]	–
COc1ccccc1OCCC(=O)OCC(=O)Nc1ccc(Br)cc1	1.03 µM [falling, partial curve, poor fit]	–
C/C(=N\NC(=S)NCc1ccccc1)c1ccc(Cl)cc1	29.1 µM [rising, single point]	20.6 µM [falling, single point]
CC(=O)N1CCC(=NNc2ccc(S(=O)(=O)N3CCOCC3)cc2[N+](=O)[O-])CC1	20.6 µM [falling, partial curve]	–
Cc1ccc(S(=O)(=O)c2c(N)n(NC(=O)c3ccco3)c3nc4ccccc4nc23)cc1	20 µM [falling, partial curve]	–
Cc1ccc(C(=O)N2c3ccc(F)cc3CCC2C)o1 (stereo not drawn)	2.31 µM [rising, partial curve, poor fit]	–
COC(=O)c1sccc1NC(=O)COc1cccc(C)c1	1.12 µM [falling, full curve]	–
O=C(CC1NCCNC1=O)Nc1cccc([N+](=O)[O-])c1 (stereo not drawn)	17.8 µM [rising, single point]	–
COC(=O)c1ccccc1NC(=O)COC(=O)[C@H](C)NC(N)=O	22.4 µM [falling, single point]	–
CC1(C)CC2(CC(c3cccs3)c3cc(Cl)c(O)cc3O2)NC(=S)N1 (stereo not drawn)	20 µM [falling, partial curve, poor fit]	–
COc1ccc(-n2nnnc2SCC(=O)Nc2cccc(NC(C)=O)c2)cc1OC	4.47 µM [rising, full curve, poor fit]	–
O=c1cnn(-c2ccc(Cl)cc2Cl)c(-c2ccccc2)c1	5.8 µM [rising, full curve]	–
COc1ccccc1NC(=O)Cn1cc(C(=O)c2ccco2)c2ccccc21	15.8 µM [falling, single point]	–

For reference, 2 of the compounds above.
Compound	AC50 [1]	AC50 [2]
Cc1ccc(C(=O)N2c3ccc(F)cc3CCC2C)o1 (stereo not drawn)	2.31 µM [rising, partial curve, poor fit]	–
COC(=O)c1sccc1NC(=O)COc1cccc(C)c1	1.12 µM [falling, full curve]	–
